According to PMC7371361:
No constants are given. Whether binding was seen depends on the method and setting. Binding seen in cells or lysates may run through a third protein. Some entries that bind do so weakly or less than the wild type.

Sequences of proteins named here, by UniProt entry; tags and fusion partners are left off.
UniProt P51149: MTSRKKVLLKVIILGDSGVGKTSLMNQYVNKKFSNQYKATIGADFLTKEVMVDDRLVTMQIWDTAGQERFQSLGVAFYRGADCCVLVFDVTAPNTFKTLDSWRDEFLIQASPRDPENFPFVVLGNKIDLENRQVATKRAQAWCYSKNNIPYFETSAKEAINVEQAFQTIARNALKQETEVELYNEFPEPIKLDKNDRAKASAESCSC
UniProt Q14457: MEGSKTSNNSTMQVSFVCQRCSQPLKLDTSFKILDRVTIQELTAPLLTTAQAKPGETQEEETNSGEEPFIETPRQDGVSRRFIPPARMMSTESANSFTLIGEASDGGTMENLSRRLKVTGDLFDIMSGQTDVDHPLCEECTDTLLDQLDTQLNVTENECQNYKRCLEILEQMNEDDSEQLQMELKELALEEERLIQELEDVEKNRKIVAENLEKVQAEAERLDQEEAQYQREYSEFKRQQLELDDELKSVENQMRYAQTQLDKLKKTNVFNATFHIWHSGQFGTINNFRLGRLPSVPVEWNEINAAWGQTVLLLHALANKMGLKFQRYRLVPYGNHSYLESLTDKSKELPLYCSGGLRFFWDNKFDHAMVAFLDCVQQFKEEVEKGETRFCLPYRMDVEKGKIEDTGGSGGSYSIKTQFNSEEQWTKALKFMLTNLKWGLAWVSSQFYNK

Legend:
[1] = target: Rab7 (human (endogenous in Hep2)) (UniProt P51149); assay: co-IP; endogenous proteins in lysate of Hep2 cells stimulated with FbaA; anti-Beclin-1 or anti-Rab7 antibody overnight at 4°C, protein A/G beads (Pierce classic magnetic IP/co-IP kit), Western blot
[2] = target: Beclin-1 (human (endogenous in Hep2)) (UniProt Q14457); assay: as above

| binding [1] | binding [2] | Substance |
| --- | --- | --- |
| binds | – | Beclin-1 (from UniProt Q14457 1-450) |
| – | binds | Rab7 (from UniProt P51149 1-207) |
